Structures were worked out from names or drawings and are uncertain.
Legend:
Format in all cases: biochemical
[1] = biological target: human Yes1 enzyme (Homo sapiens, UniProt P07947); test: Yes1 enzyme inhibitory activity (time-resolved fluorometry, biotinylated peptide phosphorylation); details: read-out: YES_IC50
Procedure: (§1) 1. Yes1 Enzyme Inhibitory Activity Yes1 inhibitory activity was determined based on activity of inhibiting phosphorylation reaction of a biotinylated peptide (EGPWLEEEEEAYGWMDF) using a human Yes1 enzyme prepared using a baculovirus expression system. The phosphorylated biotinylated peptide was detected by time-resolved fluorometry using an anti-phosphorylated tyrosine antibody conjugated to europium cryptate, and streptavidin conjugated to XL665, an allophycocyanin derivative. The 50% inhibitory concentration (IC50) was calculated from the inhibition rate relative to the control group without containing the test substance.

Amino acid sequences for entries named in this document (tags omitted).
UniProt P07947, whole entry: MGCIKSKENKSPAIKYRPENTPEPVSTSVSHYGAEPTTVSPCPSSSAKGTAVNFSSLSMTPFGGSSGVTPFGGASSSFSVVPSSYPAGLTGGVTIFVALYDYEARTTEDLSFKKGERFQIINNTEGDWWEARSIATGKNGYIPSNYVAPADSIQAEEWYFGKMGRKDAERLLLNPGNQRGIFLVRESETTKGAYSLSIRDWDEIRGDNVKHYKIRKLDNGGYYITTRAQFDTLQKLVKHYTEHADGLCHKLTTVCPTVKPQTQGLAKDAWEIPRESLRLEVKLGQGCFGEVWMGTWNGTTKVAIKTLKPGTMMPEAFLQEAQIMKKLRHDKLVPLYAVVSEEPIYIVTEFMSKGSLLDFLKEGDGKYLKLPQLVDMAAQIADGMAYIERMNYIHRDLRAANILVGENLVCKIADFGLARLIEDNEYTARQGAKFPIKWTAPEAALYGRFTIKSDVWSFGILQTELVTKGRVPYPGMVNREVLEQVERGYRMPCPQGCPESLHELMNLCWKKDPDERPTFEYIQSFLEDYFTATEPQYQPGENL
UniProt P12931, whole entry: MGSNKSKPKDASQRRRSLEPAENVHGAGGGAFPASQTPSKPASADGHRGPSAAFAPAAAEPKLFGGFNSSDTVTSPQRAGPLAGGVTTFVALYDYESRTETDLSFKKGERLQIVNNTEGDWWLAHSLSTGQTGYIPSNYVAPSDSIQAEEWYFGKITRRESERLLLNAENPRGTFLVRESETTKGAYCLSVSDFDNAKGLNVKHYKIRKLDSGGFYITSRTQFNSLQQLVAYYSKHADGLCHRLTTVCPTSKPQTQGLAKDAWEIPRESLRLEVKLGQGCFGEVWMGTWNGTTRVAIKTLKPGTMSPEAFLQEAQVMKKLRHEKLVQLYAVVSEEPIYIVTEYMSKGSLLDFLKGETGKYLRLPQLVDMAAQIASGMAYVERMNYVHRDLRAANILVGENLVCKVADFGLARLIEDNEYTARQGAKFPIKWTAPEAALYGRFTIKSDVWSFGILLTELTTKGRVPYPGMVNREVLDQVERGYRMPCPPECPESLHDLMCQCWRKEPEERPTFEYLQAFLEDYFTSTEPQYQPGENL
UniProt P06239, whole entry: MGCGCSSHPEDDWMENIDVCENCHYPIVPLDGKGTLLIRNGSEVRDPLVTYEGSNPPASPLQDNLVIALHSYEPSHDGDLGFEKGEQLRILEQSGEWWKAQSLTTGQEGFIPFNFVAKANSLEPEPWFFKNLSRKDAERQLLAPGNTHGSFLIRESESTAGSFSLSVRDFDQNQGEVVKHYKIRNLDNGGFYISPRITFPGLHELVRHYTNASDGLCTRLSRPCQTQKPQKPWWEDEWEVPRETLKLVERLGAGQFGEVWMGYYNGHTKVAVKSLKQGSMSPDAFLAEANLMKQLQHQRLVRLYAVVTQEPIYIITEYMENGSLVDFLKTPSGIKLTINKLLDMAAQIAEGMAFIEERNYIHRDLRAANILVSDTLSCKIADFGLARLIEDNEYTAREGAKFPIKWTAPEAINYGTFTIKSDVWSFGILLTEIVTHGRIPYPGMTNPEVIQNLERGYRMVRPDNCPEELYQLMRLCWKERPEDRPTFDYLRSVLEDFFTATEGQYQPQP

[2] = biological target: human Src enzyme (Homo sapiens, UniProt P12931); test: Src enzyme inhibitory activity (time-resolved fluorometry, biotinylated peptide phosphorylation); details: read-out: SRC_IC50
Procedure: as §1, with “2. Src” for “1. Yes1”, “Src” for “Yes1”, “(manufactured by Carna Biosciences, Inc., cat 08-173).” for “prepared using a baculovirus expression system.”

[3] = biological target: human Lck enzyme (Homo sapiens, UniProt P06239); test: Lck enzyme inhibitory activity (time-resolved fluorometry, biotinylated peptide phosphorylation); details: read-out: LCK_IC50
Procedure: as §1, with “3. Lck” for “1. Yes1”, “Lck” for “Yes1”, “(manufactured by Carna Biosciences, Inc., cat 08-170).” for “prepared using a baculovirus expression system.”

SMILES | IC50 [1] [nM] | IC50 [2] [nM] | IC50 [3] [nM]
Cc1cc(Oc2ccccc2F)ccc1-n1ncc(C(=O)c2cc3cc(OCC(F)F)c(N4C(=O)N[C@@H](Cc5cnc[nH]5)C4=O)cc3[nH]2)c1N | 1.1 | 9.6 | 3.2
Cc1cc(Oc2ccccc2F)ccc1-n1ncc(C(=O)c2cc3cc(OCC(F)F)c(N4C(=O)[C@@H]5C[C@H](NS(C)(=O)=O)CN5C4=O)cc3[nH]2)c1N | 0.89 | 10 | 3.1

Source: patent US10479780B2, “Aminopyrazole derivatives” (Chugai Seiyaku Kabushiki Kaisha, priority 2015, dated 2019)
